Test results from PMC12172431.
No constants are given. Whether binding was seen depends on the method and setting. In cells and extracts the contact can be indirect. Some results given as binding are weak or reduced against the parent protein; the word gives no strength.

By UniProt entry, the sequences of proteins in these tests, tags left out.
UniProt P41467: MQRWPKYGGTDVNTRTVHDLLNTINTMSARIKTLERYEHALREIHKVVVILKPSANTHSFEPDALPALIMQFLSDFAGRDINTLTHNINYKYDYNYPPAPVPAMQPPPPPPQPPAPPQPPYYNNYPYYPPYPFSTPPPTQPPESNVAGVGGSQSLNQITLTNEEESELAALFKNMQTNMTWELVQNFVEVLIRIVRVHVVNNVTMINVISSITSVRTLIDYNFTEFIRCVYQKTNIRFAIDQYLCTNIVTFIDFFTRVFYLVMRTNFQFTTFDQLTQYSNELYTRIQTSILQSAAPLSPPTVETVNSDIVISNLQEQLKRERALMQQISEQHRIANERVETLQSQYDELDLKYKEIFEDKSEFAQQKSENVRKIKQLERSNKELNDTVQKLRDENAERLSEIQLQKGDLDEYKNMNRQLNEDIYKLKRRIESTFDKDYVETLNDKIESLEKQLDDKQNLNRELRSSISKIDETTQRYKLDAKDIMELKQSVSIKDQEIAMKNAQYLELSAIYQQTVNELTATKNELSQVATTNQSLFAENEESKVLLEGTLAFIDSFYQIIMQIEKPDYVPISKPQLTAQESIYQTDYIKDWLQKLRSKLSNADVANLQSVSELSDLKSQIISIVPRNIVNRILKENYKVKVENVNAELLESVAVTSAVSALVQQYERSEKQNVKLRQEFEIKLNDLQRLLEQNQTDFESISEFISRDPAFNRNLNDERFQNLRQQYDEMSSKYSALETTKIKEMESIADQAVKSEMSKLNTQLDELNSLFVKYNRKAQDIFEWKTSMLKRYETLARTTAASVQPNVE
UniProt P41455: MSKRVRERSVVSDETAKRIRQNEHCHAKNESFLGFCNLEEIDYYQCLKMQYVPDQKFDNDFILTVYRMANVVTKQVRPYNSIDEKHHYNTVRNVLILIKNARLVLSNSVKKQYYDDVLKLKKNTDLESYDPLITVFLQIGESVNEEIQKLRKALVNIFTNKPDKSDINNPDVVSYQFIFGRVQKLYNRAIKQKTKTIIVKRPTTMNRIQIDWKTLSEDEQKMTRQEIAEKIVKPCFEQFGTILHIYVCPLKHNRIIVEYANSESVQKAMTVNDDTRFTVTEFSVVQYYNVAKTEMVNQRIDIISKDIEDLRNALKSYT
UniProt P24730: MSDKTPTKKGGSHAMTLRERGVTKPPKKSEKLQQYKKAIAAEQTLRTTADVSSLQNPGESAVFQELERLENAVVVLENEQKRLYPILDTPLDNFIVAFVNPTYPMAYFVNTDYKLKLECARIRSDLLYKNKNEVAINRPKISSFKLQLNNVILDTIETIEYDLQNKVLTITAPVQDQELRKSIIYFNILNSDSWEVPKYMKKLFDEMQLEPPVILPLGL
UniProt Q04719: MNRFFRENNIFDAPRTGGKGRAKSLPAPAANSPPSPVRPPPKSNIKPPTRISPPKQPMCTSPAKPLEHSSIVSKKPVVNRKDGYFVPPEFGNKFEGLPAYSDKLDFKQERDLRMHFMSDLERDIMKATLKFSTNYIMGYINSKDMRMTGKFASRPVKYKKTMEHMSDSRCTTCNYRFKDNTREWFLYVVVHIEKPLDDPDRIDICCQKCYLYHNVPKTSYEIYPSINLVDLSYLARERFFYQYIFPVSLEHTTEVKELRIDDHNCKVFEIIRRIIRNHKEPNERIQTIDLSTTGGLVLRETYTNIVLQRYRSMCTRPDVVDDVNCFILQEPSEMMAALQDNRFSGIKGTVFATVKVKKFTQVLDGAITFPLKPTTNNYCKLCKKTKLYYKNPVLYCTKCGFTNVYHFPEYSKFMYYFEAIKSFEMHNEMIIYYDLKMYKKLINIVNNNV

What was measured:
[1] = biological target: Flag-tagged Ac66 (AcMNPV) (UniProt P41467); test: co-IP; Sf9 cells infected with vAcWT^Ac66Flag or vAcWT^EXON0Flag (MOI 5), 48 h p.i.; lysate on Flag-conjugated magnetic beads, or anti-Ac51 antibody with protein A/G agarose, 4°C overnight; IgG control; western blot
[2] = biological target: Flag-tagged Ac66 (AcMNPV) (UniProt P41467); test: co-IP; Sf9 cells transfected with pIB-ME53GFP and infected with vAcWT or vAcWT^Ac66Flag, or infected with vAc132HA alone or with vAcWT^Ac66Flag, 48 h p.i.; IP with anti-Ac51 or anti-Flag antibody, IgG control; western blot
Ac51 (AcMNPV) [3] = biological target: Ac51 (AcMNPV) (UniProt P41455); test: as above
Ac51 (AcMNPV) [4] = biological target: Ac51 (AcMNPV) (UniProt P41455); test: co-IP; Sf9 cells infected with vAcWT^Ac66Flag or vAcWT^EXON0Flag (MOI 5), 48 h p.i.; lysate on Flag-conjugated magnetic beads, or anti-Ac51 antibody with protein A/G agarose, 4°C overnight; IgG control; western blot

Substance | binding [1] | binding [2] | binding (Ac51 (AcMNPV) [3]) | binding (Ac51 (AcMNPV) [4])
Ac51 (from UniProt P41455 1-318) | binds | – | – | –
Ac132HA (from UniProt P24730 1-219) | – | binds | binds | –
Flag-tagged Ac66 (from UniProt P41467 1-808) | – | – | – | binds
ME53GFP (from UniProt Q04719 1-449) | – | binds | binds | –
